The values below come from the supplement of paper PMC10849652.

Amino acid sequences for entries named in this document (tags omitted). A change or cut given only in a name is not applied to a line headed by its entry.
UniProt Q86SF2: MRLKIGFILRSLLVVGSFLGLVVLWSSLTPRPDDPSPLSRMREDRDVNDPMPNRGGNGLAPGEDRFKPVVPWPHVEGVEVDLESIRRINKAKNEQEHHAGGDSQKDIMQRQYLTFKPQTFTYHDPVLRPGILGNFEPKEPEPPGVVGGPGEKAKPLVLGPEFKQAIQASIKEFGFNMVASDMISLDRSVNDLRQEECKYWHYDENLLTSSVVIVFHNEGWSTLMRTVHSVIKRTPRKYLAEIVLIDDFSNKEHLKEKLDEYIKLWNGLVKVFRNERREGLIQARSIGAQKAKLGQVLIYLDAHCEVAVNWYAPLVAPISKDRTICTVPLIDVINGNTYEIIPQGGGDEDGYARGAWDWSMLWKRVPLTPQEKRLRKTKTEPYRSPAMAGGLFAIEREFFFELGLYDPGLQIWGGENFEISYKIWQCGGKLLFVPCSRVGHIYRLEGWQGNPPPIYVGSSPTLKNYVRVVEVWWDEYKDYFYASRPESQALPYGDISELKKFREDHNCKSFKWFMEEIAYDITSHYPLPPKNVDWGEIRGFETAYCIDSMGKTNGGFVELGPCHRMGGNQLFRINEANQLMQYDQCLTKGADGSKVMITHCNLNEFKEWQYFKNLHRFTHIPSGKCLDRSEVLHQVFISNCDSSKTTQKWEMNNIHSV
UniProt O14893: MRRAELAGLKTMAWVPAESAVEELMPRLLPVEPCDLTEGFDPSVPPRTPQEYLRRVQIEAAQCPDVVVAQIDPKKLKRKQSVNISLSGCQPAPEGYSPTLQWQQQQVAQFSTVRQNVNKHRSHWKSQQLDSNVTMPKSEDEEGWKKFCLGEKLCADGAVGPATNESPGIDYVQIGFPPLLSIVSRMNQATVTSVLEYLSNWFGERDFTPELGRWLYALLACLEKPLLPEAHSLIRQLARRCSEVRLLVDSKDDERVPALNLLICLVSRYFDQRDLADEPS
UniProt Q10471: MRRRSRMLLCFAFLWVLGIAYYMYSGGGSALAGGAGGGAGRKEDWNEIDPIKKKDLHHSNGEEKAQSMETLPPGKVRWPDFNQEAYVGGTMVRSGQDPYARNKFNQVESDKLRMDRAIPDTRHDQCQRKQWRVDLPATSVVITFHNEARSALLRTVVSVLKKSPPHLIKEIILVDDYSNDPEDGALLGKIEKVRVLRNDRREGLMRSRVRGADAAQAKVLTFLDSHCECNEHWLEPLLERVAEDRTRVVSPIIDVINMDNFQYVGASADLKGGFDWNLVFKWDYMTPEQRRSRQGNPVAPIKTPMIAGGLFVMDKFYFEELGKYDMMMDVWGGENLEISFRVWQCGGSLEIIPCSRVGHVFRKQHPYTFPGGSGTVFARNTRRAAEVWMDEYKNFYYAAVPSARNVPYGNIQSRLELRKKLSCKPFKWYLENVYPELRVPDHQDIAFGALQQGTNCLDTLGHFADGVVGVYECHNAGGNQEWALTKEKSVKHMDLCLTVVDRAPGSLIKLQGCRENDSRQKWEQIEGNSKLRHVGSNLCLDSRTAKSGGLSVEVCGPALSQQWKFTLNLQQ
UniProt P04062: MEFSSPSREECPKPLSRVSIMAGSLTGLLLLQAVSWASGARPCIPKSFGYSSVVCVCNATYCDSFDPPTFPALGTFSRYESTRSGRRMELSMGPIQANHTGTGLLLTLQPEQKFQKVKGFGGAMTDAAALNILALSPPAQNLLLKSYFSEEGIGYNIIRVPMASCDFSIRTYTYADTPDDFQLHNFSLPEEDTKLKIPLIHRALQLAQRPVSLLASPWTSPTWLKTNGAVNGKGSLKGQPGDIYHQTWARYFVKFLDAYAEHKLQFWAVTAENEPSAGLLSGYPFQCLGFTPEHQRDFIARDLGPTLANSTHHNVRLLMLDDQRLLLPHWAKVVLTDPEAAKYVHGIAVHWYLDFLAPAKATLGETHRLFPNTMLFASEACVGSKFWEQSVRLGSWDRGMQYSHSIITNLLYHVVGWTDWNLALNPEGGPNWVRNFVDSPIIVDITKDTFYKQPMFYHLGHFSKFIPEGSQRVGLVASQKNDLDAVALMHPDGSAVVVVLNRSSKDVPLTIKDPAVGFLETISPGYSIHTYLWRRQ
UniProt P04066: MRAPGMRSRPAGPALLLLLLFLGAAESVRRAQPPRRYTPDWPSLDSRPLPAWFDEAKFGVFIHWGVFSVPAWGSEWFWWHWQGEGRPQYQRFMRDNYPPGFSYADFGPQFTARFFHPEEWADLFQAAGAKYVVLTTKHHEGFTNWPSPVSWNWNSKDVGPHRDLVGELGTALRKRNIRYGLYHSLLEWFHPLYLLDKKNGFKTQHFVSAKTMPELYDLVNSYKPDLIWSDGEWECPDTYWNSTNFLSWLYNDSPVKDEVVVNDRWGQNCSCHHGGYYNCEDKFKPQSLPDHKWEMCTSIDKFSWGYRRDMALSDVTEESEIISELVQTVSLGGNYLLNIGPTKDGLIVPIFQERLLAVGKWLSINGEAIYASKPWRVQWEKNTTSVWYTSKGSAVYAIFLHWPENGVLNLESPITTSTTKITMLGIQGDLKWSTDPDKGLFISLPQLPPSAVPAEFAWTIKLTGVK
UniProt Q96C23: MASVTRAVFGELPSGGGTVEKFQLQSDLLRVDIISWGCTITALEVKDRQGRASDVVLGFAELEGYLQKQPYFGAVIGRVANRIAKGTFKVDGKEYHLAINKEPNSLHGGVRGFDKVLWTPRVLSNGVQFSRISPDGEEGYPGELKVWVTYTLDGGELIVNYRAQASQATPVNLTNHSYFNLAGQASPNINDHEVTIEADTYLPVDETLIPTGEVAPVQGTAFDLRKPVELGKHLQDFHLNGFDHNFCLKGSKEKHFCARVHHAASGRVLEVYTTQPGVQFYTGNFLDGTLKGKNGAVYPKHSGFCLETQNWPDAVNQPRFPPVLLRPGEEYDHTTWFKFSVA
UniProt Q10472: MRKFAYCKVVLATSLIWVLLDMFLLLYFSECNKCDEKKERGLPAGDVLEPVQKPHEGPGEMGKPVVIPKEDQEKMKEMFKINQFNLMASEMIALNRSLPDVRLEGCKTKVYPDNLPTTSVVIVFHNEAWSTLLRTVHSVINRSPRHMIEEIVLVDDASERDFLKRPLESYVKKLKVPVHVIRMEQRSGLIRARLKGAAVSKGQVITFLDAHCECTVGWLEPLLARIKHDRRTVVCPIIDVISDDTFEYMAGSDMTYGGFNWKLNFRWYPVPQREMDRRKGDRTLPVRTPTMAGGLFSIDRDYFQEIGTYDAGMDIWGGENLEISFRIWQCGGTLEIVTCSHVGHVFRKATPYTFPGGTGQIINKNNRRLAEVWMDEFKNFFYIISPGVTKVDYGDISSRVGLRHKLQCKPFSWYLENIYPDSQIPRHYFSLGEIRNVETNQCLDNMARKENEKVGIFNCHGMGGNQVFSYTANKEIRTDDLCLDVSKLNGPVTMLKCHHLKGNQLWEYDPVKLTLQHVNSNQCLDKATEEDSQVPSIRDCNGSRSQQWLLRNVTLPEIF
UniProt P55789: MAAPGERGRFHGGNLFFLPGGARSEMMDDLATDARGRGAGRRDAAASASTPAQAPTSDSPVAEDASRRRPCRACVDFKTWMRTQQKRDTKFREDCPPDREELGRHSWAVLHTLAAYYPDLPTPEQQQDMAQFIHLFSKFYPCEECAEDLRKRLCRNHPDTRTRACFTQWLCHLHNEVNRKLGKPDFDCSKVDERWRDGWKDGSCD
UniProt P22102: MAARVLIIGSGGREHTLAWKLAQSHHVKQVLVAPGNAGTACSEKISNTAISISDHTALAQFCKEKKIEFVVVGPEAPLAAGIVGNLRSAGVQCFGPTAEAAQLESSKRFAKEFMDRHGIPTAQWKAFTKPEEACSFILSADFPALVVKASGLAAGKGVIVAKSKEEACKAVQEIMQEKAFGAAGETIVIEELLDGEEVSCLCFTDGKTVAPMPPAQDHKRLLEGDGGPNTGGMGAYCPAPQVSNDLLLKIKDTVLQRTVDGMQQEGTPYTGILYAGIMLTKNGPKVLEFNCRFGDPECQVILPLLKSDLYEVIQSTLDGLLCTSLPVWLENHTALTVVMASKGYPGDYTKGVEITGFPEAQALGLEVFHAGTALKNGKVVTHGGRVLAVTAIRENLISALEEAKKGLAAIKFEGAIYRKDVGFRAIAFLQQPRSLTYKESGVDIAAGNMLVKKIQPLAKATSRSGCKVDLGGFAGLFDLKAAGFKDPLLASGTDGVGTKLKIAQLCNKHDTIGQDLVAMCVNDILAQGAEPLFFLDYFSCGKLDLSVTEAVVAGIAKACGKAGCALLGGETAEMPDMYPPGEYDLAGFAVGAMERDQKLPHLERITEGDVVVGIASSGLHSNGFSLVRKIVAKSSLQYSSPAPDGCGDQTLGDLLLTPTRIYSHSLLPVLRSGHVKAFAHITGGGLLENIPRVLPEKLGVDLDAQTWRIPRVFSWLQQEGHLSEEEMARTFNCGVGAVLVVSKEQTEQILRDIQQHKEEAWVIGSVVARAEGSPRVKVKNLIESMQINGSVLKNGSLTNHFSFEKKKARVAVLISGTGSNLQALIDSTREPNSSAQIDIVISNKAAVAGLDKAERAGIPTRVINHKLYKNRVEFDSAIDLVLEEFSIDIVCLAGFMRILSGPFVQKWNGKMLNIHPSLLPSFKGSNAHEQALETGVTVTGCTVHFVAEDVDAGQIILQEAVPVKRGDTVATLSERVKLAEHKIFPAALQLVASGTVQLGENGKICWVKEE
UniProt O15117, whole entry, looked up: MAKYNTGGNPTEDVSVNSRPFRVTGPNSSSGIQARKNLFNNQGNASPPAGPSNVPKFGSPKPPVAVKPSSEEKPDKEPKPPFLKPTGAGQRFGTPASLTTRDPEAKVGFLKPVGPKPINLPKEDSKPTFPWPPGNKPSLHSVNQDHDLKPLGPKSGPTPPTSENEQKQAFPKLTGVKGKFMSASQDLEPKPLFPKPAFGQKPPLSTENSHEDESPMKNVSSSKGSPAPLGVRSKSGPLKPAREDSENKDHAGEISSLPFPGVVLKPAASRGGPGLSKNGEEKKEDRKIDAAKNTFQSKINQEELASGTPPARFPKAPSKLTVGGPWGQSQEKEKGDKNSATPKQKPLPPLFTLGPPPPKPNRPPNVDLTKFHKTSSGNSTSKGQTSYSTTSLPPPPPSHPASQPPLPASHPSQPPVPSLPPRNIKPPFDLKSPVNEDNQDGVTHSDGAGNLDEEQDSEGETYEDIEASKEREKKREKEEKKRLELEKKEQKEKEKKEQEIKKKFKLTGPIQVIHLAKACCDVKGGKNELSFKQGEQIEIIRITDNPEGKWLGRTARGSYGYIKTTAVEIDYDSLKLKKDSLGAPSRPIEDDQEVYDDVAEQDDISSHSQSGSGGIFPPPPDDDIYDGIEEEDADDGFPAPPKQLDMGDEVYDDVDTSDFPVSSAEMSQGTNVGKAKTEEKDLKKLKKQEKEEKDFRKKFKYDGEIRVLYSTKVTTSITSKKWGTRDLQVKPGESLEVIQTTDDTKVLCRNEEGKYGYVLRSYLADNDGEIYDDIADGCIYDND
UniProt O95166, whole entry, looked up: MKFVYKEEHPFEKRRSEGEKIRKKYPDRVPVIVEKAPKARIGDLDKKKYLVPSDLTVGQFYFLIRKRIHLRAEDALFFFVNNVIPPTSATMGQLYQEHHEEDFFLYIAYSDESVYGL
UniProt P23434: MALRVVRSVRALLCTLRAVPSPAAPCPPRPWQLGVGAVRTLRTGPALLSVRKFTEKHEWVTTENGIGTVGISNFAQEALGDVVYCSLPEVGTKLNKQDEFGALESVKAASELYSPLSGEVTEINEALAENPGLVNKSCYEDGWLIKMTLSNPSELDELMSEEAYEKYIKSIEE
UniProt P34059: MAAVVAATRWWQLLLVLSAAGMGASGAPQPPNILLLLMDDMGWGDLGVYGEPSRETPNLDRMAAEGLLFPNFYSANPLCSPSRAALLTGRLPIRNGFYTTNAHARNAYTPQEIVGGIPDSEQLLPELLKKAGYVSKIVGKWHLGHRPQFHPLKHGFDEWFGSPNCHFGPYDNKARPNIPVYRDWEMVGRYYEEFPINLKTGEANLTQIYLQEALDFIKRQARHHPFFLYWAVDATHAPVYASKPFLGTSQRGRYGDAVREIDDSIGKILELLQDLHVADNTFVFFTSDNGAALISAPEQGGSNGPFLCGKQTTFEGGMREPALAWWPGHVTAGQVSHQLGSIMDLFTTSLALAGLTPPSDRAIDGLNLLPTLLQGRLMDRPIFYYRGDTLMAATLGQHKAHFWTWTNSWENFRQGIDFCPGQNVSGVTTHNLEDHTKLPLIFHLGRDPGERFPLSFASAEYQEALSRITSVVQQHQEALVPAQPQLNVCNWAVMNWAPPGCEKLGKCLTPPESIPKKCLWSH
UniProt Q14376: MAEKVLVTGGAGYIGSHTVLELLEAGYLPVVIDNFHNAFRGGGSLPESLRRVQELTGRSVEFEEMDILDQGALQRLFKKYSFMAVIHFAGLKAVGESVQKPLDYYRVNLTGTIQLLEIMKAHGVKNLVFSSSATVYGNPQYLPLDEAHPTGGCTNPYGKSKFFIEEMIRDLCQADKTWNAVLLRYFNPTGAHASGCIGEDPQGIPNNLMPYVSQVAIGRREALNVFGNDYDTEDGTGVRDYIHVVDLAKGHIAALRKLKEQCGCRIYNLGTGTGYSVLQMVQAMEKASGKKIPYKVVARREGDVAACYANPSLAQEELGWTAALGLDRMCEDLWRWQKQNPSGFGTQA

The other results are listed elsewhere or left out.

Compound in the first assay: C1=CC2=C(C=CC(=C2)/C=C\3/C(=O)NC(=NCC4=CC=CS4)S3)N=C1
Briefly: log2 fold change, soluble protein after heating vs DMSO (PISA); higher = thermal stabilisation; K562 lysate, 10 uM; active = over 0.2 and 3.5 SD of the protein, either way, in both replicates (recomputed). The essentials: (§1)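 Values give the log-two fold change in thermal stability against solvent controls, from duplicates. Crude K562 extract at 1 mg/mL protein, made by dounce homogenisation in PBS pH 7.4 with 1 mM MgCl2, was treated with 10 μM compound for 30 min. After 3 min heating across 48°C-58°C, aliquots were pooled, adjusted to 0.5% NP-40 at 4°C and centrifuged at 21,000xg for 90 min. The supernatant was measured by TMTpro 16plex LC-MS/MS with channel sums equalised.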
As to FTSJ1 (UniProt Q9UET6), the log2 fold change was inactive: 0.005.
For the target GCC2 (UniProt Q8IWJ2), the log2 fold change is inactive: 0.002.
Regarding GALNT7 (UniProt Q86SF2), the log2 fold change was inactive: -0.013.
On the same count and under the same terms, then GEMIN2 (UniProt O14893), with inactive: 0.053; and GANAB isoform 2 (UniProt Q14697), with inactive: -0.006; and GALNT5 (UniProt Q7Z7M9), with inactive: -0.012.
Take GALNT2 (UniProt Q10471): the log2 fold change was inactive: 0.054.
For G3BP2 (UniProt Q9UN86), the log2 fold change is inactive: 0.006.
GBA (UniProt P04062): the log2 fold change is inactive: -0.005.
Same read-out and setting: for FUCA1 (UniProt P04066) the value was inactive: -0.013; for GATAD2B (UniProt Q8WXI9), inactive: 0.037.
With FREM2 (UniProt Q5SZK8), the log2 fold change is inactive: -0.065.
For FRRS1 (UniProt Q6ZNA5), the log2 fold change was inactive: 0.033.
On the same count and under the same terms, then GCC1 (UniProt Q96CN9), with inactive: -0.08; and FXN (UniProt Q16595), with inactive: -0.006; and GABPB1 (UniProt Q06547), with inactive: 0.028.
Take FPGT (UniProt O14772): the log2 fold change was inactive: 0.011.
Consider GALM (UniProt Q96C23), for which the log2 fold change was inactive: 0.017.
For the target GALNT1 (UniProt Q10472), the log2 fold change was inactive: 0.019.
The same measure, in the same setting: then GAPDH (UniProt P04406), with inactive: 0.006; and GFER (UniProt P55789), with inactive: 0.101.
Take GFPT1 (UniProt Q06210): the log2 fold change was inactive: 0.013.
The same measure, in the same setting: for GART (UniProt P22102) the value was inactive: -0.013.
In the case of GALNT12 (UniProt Q8IXK2), the log2 fold change was inactive: -0.047.
Regarding GFM1 (UniProt Q96RP9), the log2 fold change was inactive: -0.007.
In the case of FYB1 isoform 3 (UniProt O15117), the log2 fold change is inactive: -0.073.
For the target GABARAP (UniProt O95166), the log2 fold change was inactive: 0.091.
Take GCSH (UniProt P23434): the log2 fold change was inactive: 0.029.
Take GARS1 (UniProt P41250): the log2 fold change is inactive: -0.009.
The same measure, in the same setting: for GEMIN6 (UniProt Q8WXD5) the value was inactive: -0.049; for GALNS (UniProt P34059), inactive: 0.052; for GALE (UniProt Q14376), inactive: 0.008.
For FSCN1 (UniProt Q16658), the log2 fold change was inactive: -0.009.

Compound in the next assay: C1=CC2=NC=CN=C2C=C1/C=C/3\C(=O)NC(=O)S3
The description is as above. The essentials:
as §1
Turning to FTSJ1 (UniProt Q9UET6), the log2 fold change was inactive: -0.025.
With GCC2 (UniProt Q8IWJ2), the log2 fold change was inactive: -0.025.
In the case of GALNT7 (UniProt Q86SF2), the log2 fold change is inactive: -0.025.
GEMIN2 (UniProt O14893): the log2 fold change is inactive: 0.028.
Same read-out and setting: for GANAB isoform 2 (UniProt Q14697) the value was inactive: -0.012.
The same measure, in the same setting: then GALNT5 (UniProt Q7Z7M9), with inactive: -0.024; and GALNT2 (UniProt Q10471), with inactive: -0.004.
For G3BP2 (UniProt Q9UN86), the log2 fold change was inactive: -0.012.
With GBA (UniProt P04062), the log2 fold change is inactive: -0.054.
Still for that read-out and setting: then FUCA1 (UniProt P04066), with inactive: 0.015; and GATAD2B (UniProt Q8WXI9), with inactive: -0.058; and FREM2 (UniProt Q5SZK8), with inactive: 0.047.
Turning to FRRS1 (UniProt Q6ZNA5), the log2 fold change is inactive: -0.065.
Turning to GCC1 (UniProt Q96CN9), the log2 fold change is inactive: 0.039.
On to FXN (UniProt Q16595), for which the log2 fold change was inactive: -0.051.
The same measure, in the same setting: for GABPB1 (UniProt Q06547) the value was inactive: 0.035; for FPGT (UniProt O14772), inactive: 0.023.
Consider GALM (UniProt Q96C23), for which the log2 fold change is inactive: -0.037.
Regarding GALNT1 (UniProt Q10472), the log2 fold change is inactive: -0.002.
For GAPDH (UniProt P04406), the log2 fold change is inactive: -0.006.
As for GFER (UniProt P55789), the log2 fold change was inactive: -0.044.
Turning to GFPT1 (UniProt Q06210), the log2 fold change is inactive: -0.008.
Take GART (UniProt P22102): the log2 fold change is inactive: 0.016.
Take GALNT12 (UniProt Q8IXK2): the log2 fold change is inactive: 0.015.
As to GFM1 (UniProt Q96RP9), the log2 fold change is inactive: -0.014.
In the case of FYB1 isoform 3 (UniProt O15117), the log2 fold change was inactive: 0.009.
On the same count and under the same terms, then GABARAP (UniProt O95166), with inactive: -0.119; and GCSH (UniProt P23434), with inactive: 0.096.
On to GARS1 (UniProt P41250), for which the log2 fold change was inactive: 0.005.
For GEMIN6 (UniProt Q8WXD5), the log2 fold change was inactive: 0.003.
As for GALNS (UniProt P34059), the log2 fold change is inactive: 0.042.
For the target GALE (UniProt Q14376), the log2 fold change is inactive: -0.001.
FSCN1 (UniProt Q16658): the log2 fold change is inactive: -0.001.

Compound in the next assay: C1=CC=C(C=C1)C2=NC(=C(N2)C3=CC=NC=C3)C4=CC(=C(C=C4)Cl)O
The description is as above. The essentials: as §1
For the target FTSJ1 (UniProt Q9UET6), the log2 fold change was inactive: 0.07.
On to GCC2 (UniProt Q8IWJ2), for which the log2 fold change was inactive: -0.001.
Regarding GALNT7 (UniProt Q86SF2), the log2 fold change was inactive: -0.028.
Same read-out and setting: then GEMIN2 (UniProt O14893), with inactive: 0.015.
Regarding GANAB isoform 2 (UniProt Q14697), the log2 fold change is inactive: -0.012.
Consider GALNT5 (UniProt Q7Z7M9), for which the log2 fold change is inactive: -0.065.
Regarding GALNT2 (UniProt Q10471), the log2 fold change was inactive: -0.04.
As to G3BP2 (UniProt Q9UN86), the log2 fold change is inactive: 0.012.
With GBA (UniProt P04062), the log2 fold change is inactive: 0.004.
On to FUCA1 (UniProt P04066), for which the log2 fold change was inactive: 0.024.
Consider GATAD2B (UniProt Q8WXI9), for which the log2 fold change was inactive: 0.01.
Take FREM2 (UniProt Q5SZK8): the log2 fold change is inactive: 0.008.
Take FRRS1 (UniProt Q6ZNA5): the log2 fold change is inactive: -0.01.
As to GCC1 (UniProt Q96CN9), the log2 fold change is inactive: -0.013.
As to FXN (UniProt Q16595), the log2 fold change was inactive: -0.01.
Take GABPB1 (UniProt Q06547): the log2 fold change is inactive: 0.016.
Consider FPGT (UniProt O14772), for which the log2 fold change is inactive: -0.002.
For the target GALM (UniProt Q96C23), the log2 fold change was inactive: -0.025.
Regarding GALNT1 (UniProt Q10472), the log2 fold change is inactive: -0.007.
Turning to GAPDH (UniProt P04406), the log2 fold change was inactive: -0.005.
As to GFER (UniProt P55789), the log2 fold change was inactive: -0.028.
Regarding GFPT1 (UniProt Q06210), the log2 fold change is inactive: 0.001.
Regarding GART (UniProt P22102), the log2 fold change is inactive: 0.015.
GALNT12 (UniProt Q8IXK2): the log2 fold change was inactive: -0.026.
As to GFM1 (UniProt Q96RP9), the log2 fold change is inactive: 0.009.
On to FYB1 isoform 3 (UniProt O15117), for which the log2 fold change was inactive: 0.015.
As to GABARAP (UniProt O95166), the log2 fold change was inactive: 0.04.
Turning to GCSH (UniProt P23434), the log2 fold change is inactive: 0.019.
Take GARS1 (UniProt P41250): the log2 fold change was inactive: 0.013.
With GEMIN6 (UniProt Q8WXD5), the log2 fold change was inactive: -0.008.
With GALNS (UniProt P34059), the log2 fold change is inactive: 0.019.
Take GALE (UniProt Q14376): the log2 fold change is inactive: -0.025.
The same measure, in the same setting: then FSCN1 (UniProt Q16658), with inactive: 0.004.
